Reference: PubChem BioAssay AID662 (National Center for Advancing Translational Sciences (NCATS), 2007)
Where “and” joins values, the source holds several entries; their conditions need not be identical. Equal entries are not always repeated. Some of the results follow. Shown are side measurements of this screen, not its main read-out; they come without a call. The list favours compounds with an active or inconclusive main result. Potencies come from curve fits of mixed quality, noted in brackets.

assay: Cell signaling CRE-BLA (Fsk stim); settings: CHO CRE-bla reporter (cAMP response element driving beta-lactamase), forskolin EC10, beta-lactamase ratio; measured here: 460 nm blue channel
Method in brief: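 Titrated compounds plus EC10 NKH 477 on CHO CRE-bla cells, 3 h, 37 °C. CCF4, 2 h RT. Ratio 460/530 nm → AC50.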

Structure (SMILES) | AC50
Cc1cccc(Nc2nc(NC(C)C)nc(Oc3ccc(=O)n(C)n3)n2)c1 | 15.8 µM [rising, single point]
c1ccc(CNc2ncnc3ccc(-c4cccnc4)cc23)cc1 | 3.16 µM [rising, full curve, poor fit]
COC(=O)CN(c1ccc(F)cc1)S(=O)(=O)c1ccc2c(c1)OCCO2 | 0.00316 µM [falling, full curve, poor fit]
CCNc1ncc2nc(-c3ccc(Cl)cc3)c(=O)n(-c3ccc(OC)cc3)c2n1 | 2.51 µM [rising, full curve]
Cc1onc(-c2ccccc2)c1C(=O)N1CCOCC1 | 5.01 µM [falling, single point]
Cc1c(C(=O)OCC2CCCO2)[nH]c2c1C(=O)CC(c1ccc(N(C)C)cc1)C2 (centres undefined) | 25.1 µM [falling, single point]
O=C(NCc1ccc2c(c1)OCO2)c1ccc(NS(=O)(=O)c2ccc3c(c2)OCCO3)cc1 | 25.1 µM [falling, single point]
Cc1nn(CCC(=O)O)c2nc(-c3cccnc3)cc(C(F)(F)F)c12 | 10 µM [rising, partial curve]
COC(=O)c1cccc(Nc2nc3ccccc3nc2C)c1 | 5.01 µM [rising, partial curve]
Cn1cnnc1Sc1nc2ccccc2nc1NS(=O)(=O)c1ccccc1 | 3.98 µM [falling, partial curve]
CNc1nnc(-c2cc3ccccc3oc2=O)s1 | 10 µM [rising, partial curve]
O=C1CC(N2CCN(c3nc4ccccc4s3)CC2)C(=O)N1c1ccc(F)cc1 (centres undefined) | 0.794 µM [rising, single point]
O=C(NCc1cccs1)c1cc2c(s1)-c1ccccc1OC2 | 15.8 µM [rising, partial curve]
Cn1c(=O)c(C(=O)CN2CCOCC2)c(N)n(Cc2ccccc2)c1=O | 0.00398 µM [rising, full curve, poor fit]
Cc1nc2ccc(CCO)cc2s1 | 0.1 µM [rising, full curve]
Cc1ccc(N2CCCCn3c2nc2c3c(=O)[nH]c(=O)n2C)cc1 | 7.94 µM [rising, partial curve]
N#Cc1c(NC(=O)CN2CCOCC2)oc(-c2ccccc2)c1-c1ccccc1 | 25.1 µM [rising, single point]
COC(=O)c1c(-c2ccc(F)cc2)noc1N | 15.8 µM [rising, partial curve, poor fit]
Cc1ccc(C)c(-n2c(N)c(C(N)=O)sc2=S)c1 | 0.794 µM [falling, partial curve, poor fit]
COc1ccccc1N1CCN(C(=O)CCn2c(=O)[nH]c3ccsc3c2=O)CC1 | 0.398 µM [falling, partial curve]
Cc1cc(C)cc(N(CCC#N)C(=O)CSc2nc3nc(C)cc(C)n3n2)c1 | 10 µM [rising, partial curve]
Cc1cccc(CNc2ncnc3ccc(-c4ccoc4)cc23)c1 | 0.0631 µM [falling, full curve]
Cc1cccn2c(=O)c3cc(C#N)c(=O)n(Cc4cccnc4)c3nc12 | 10 µM [rising, partial curve]

Structure (SMILES) | AC50
Cc1oc(-c2cccs2)nc1CS(=O)CC(=O)NCCc1ccccc1 (centres undefined) | 15.8 µM [falling, partial curve]
CSc1cccc(NC(=O)C2CCN(S(=O)(=O)c3ccc(F)cc3)CC2)c1 | 10 µM [falling, single point]
CCCc1nc(NCc2ccco2)c(C#N)c2c1COC(C)(C)C2 | 1.26 µM [rising, partial curve]
COc1ccccc1-c1cc(C(F)(F)F)nc(S(=O)(=O)CCCC(=O)NC(C)C)n1 | 2 µM [falling, full curve, poor fit]
CCCc1ncc(C(O)c2cccc3ccccc23)n1C (centres undefined) | 0.00398 µM [falling, full curve, poor fit]
CCOP(C)(=O)C1(C(=O)OCc2ccccc2)CC1 (centres undefined) | 1 µM [falling, full curve]
COc1ccc(OC)c(NC=C2C(=O)OC3(CCCCC3)OC2=O)c1 | 12.6 µM [rising, partial curve]
COc1cc2c(C(=O)NCc3ccccn3)cn(CC(C)C)c(=O)c2cc1OC | 5.01 µM [rising, partial curve]
Nc1ccc(C2CCCc3nonc32)c2nonc12 (centres undefined) | 0.398 µM [falling, full curve, poor fit]
CCCCCn1c(Br)nc2c1c(=O)n(CC(N)=O)c(=O)n2C | 3.16 µM [falling, partial curve, poor fit]
CCOc1ccc(OCc2ccc(C(=O)Nc3ccc(Cl)cn3)o2)cc1 | 25.1 µM [rising, single point]
O=c1c(-c2ccccc2)nc2cnc(N3CCOCC3)nc2n1C[C@H]1CCCO1 | 2.51 µM [rising, full curve]
CC1CCC(NC(=O)c2ccc(CS(=O)(=O)Cc3ccccc3F)o2)CC1 (centres undefined) | 0.0501 µM [rising, full curve]
Cc1cc(C)c2c(C)nn(C3CCCCC3)c2n1 | 10 µM [rising, partial curve]
COc1cccc(-c2nc(Nc3ccncc3)c3ccccc3n2)c1 | 3.98 µM [rising, full curve]
O=C(c1cc2nc(-c3ccco3)cc(C(F)(F)F)n2n1)N1CCCCCC1 | 10 µM [rising, partial curve]
CCOc1cc(C(=O)NC)cc(OCC)c1OCC | 3.98 µM [falling, single point]
COc1ccc(-c2nc(CCNC(=O)c3ccco3)cs2)cc1OC | 2 µM [rising, full curve]
CC(C)(C)c1ccc(S(=O)(=O)/C=C\C#N)cc1 | 25.1 µM [falling, partial curve] and 3.98 µM [falling, full curve]
c1ccc(CCNC2=NCCCS2)cc1 | 0.1 µM [falling, single point]
O=C(c1cccs1)n1cc(C(=S)N2CCOCC2)c2ccccc21 | 1 µM [falling, single point]
CC(C)C(=O)Nc1nnc(Cc2ccccc2)s1 | 0.398 µM [rising, partial curve]
CC1(C)NC(=O)N(CC(O)COc2ccc(-c3ccc(C#N)cc3)cc2)C1=O (centres undefined) | 0.1 µM [falling, single point]

Structure (SMILES) | AC50
COc1ccc(OC(C)=O)c(C2c3cc(OC)c(OC)cc3CCN2C(C)=O)c1 (centres undefined) | 10 µM [rising, single point]
O=C(CN1C(=O)CSC1=O)Nc1ccc2c(c1)OCCO2 | 25.1 µM [falling, single point]
Cc1cc(=O)n2nc(N3CCC(C(=O)N4CCN(Cc5ccccc5)CC4)CC3)sc2n1 | 25.1 µM [rising, single point]
CCOc1ccccc1Oc1coc2cc(O)ccc2c1=O | 0.316 µM [rising, full curve]
COC(=O)c1ccccc1NC(=O)c1ccco1 | 10 µM [rising, partial curve]
COc1cc(C)c(S(=O)(=O)Nc2ccc(CC(=O)O)cc2)cc1C | 0.2 µM [falling, full curve]
CCCC(=O)Nc1cc(OCC)c(NC(=O)NC2CCCCC2)cc1OCC | 6.31 µM [falling, single point]
OC(c1ccccc1)c1nc2ccccc2s1 (centres undefined) | 0.00631 µM [falling, full curve, poor fit]
O=C(Nc1ccc(-c2nc3ccccc3o2)c(O)c1)c1cc(-n2cnnc2)ccc1Cl | 15.8 µM [rising, partial curve]
COc1ccccc1NC(=O)C1CCN(c2ncccn2)CC1 | 0.00398 µM [falling, full curve]
Cc1ccsc1C(=O)OCC(=O)Nc1sccc1C(N)=O | 2 µM [rising, partial curve]
Cc1cccc(NC(=O)c2ccccn2)c1C | 12.6 µM [falling, partial curve]
Cc1cccc(OCCCC(=O)O)c1 | 0.1 µM [rising, single point]
COC(=O)CSc1nnc(-c2ccco2)n1Cc1ccco1 | 5.01 µM [falling, single point]
Brc1ccccc1Cn1c(-c2cncs2)nc2ccccc21 | 3.16 µM [rising, partial curve]
O=C(c1ccco1)N1CCN(c2ccc(Cl)c(Cl)c2)CC1 | 3.98 µM [falling, full curve]
Cn1c(=O)c2c(ncn2Cc2cc(-c3ccccc3)no2)n(C)c1=O | 7.94 µM [rising, partial curve]
Cc1ccsc1C(=O)OCC(=O)c1cc(C)n(CC2CCCO2)c1C (centres undefined) | 0.0631 µM [rising, full curve, poor fit]
CN(C)c1ccc(/C=C/C(O)=C2/C(=O)N(C)C3(C)CC2c2ccccc2O3)cc1 (centres undefined) | 12.6 µM [rising, partial curve]
CCOC(=O)N1CCN(c2cc(NCCC(=O)O)c3c4c(onc24)-c2ccccc2C3=O)CC1 | 20 µM [rising, single point]
COC(=O)C1CCC(C)(C(=O)Nc2ccccc2)C1(C)C (centres undefined) | 0.0158 µM [falling, partial curve]
COc1ccc2cc(CN(Cc3ccco3)Cc3nnnn3C3CCCCC3)c(=O)[nH]c2c1 | 25.1 µM [rising, single point]
Cc1cccc(NC(=O)c2cc3n(n2)C(C(F)(F)F)CC(c2ccc4c(c2)OCO4)N3)c1 (centres undefined) | 12.6 µM [falling, partial curve]

Among those listed so far, these have a furan ring, fused or not.
Structure (SMILES) | AC50
N#Cc1c(NC(=O)CN2CCOCC2)oc(-c2ccccc2)c1-c1ccccc1 | 25.1 µM [rising, single point]
Cc1cccc(CNc2ncnc3ccc(-c4ccoc4)cc23)c1 | 0.0631 µM [falling, full curve]
CCCc1nc(NCc2ccco2)c(C#N)c2c1COC(C)(C)C2 | 1.26 µM [rising, partial curve]
CCOc1ccc(OCc2ccc(C(=O)Nc3ccc(Cl)cn3)o2)cc1 | 25.1 µM [rising, single point]
CC1CCC(NC(=O)c2ccc(CS(=O)(=O)Cc3ccccc3F)o2)CC1 (centres undefined) | 0.0501 µM [rising, full curve]
O=C(c1cc2nc(-c3ccco3)cc(C(F)(F)F)n2n1)N1CCCCCC1 | 10 µM [rising, partial curve]
COc1ccc(-c2nc(CCNC(=O)c3ccco3)cs2)cc1OC | 2 µM [rising, full curve]
COC(=O)c1ccccc1NC(=O)c1ccco1 | 10 µM [rising, partial curve]
COC(=O)CSc1nnc(-c2ccco2)n1Cc1ccco1 | 5.01 µM [falling, single point]
O=C(c1ccco1)N1CCN(c2ccc(Cl)c(Cl)c2)CC1 | 3.98 µM [falling, full curve]
COc1ccc2cc(CN(Cc3ccco3)Cc3nnnn3C3CCCCC3)c(=O)[nH]c2c1 | 25.1 µM [rising, single point]

Compounds listed so far with bromine, in the order listed:
Structure (SMILES) | AC50
CCCCCn1c(Br)nc2c1c(=O)n(CC(N)=O)c(=O)n2C | 3.16 µM [falling, partial curve, poor fit]
Brc1ccccc1Cn1c(-c2cncs2)nc2ccccc21 | 3.16 µM [rising, partial curve]
